Reference: the supplement of paper PMC8426693
The list shows a part of the results.

Tests used:
Test in all cases: NMR binding call after quantification (hit when 2 of 3 NMR criteria are met) (binary (1 = binding, 0 = not binding)); higher = binding
Conditions in all cases: RNA concentration 10 µM; fragment concentration 200 µM; 293 K
[1] = test system: SARS-CoV-2 3'-UTR RNA
[2] = test system: SARS-CoV-2 3_SL1 RNA
[3] = test system: SARS-CoV-2 3_SL1+2 RNA
[4] = test system: SARS-CoV-2 3_SL2 RNA
[5] = test system: SARS-CoV-2 3_SL3base RNA
[6] = test system: SARS-CoV-2 3_s2m RNA
[7] = test system: SARS-CoV-2 5'-UTR RNA
[8] = test system: SARS-CoV-2 5_SL1 RNA
[9] = test system: SARS-CoV-2 5_SL1234 RNA
[10] = test system: SARS-CoV-2 5_SL2+3 RNA
[11] = test system: SARS-CoV-2 5_SL4 RNA
[12] = test system: SARS-CoV-2 5_SL5 RNA
[13] = test system: SARS-CoV-2 5_SL5a RNA
[14] = test system: SARS-CoV-2 5_SL5b+c RNA
[15] = test system: SARS-CoV-2 5_SL5stem RNA
[16] = test system: SARS-CoV-2 5_SL6 RNA

Structure (SMILES)	NMR binding call [1]	NMR binding call [2]	NMR binding call [3]	NMR binding call [4]	NMR binding call [5]	NMR binding call [6]	NMR binding call [7]	NMR binding call [8]	NMR binding call [9]	NMR binding call [10]	NMR binding call [11]	NMR binding call [12]	NMR binding call [13]	NMR binding call [14]	NMR binding call [15]	NMR binding call [16]
CC(C)C(=O)N1CCC(Cc2ccccc2)CC1	0	0	0	0	0	0	0	0	0	0	0	0	0	0	0	0
COCC(=O)Nc1ccc(O)cc1	0	0	0	0	0	0	0	0	0	0	0	0	0	0	0	0
O=C(Nc1nc2ccccc2[nH]1)C1CCCCC1	0	0	0	0	0	0	0	0	0	0	0	0	0	0	0	0
Oc1ncc(NCc2ccccc2)c(O)n1	0	0	0	0	0	0	0	0	0	0	0	0	0	0	0	0
O=C(NCCC1=CCCCC1)c1cnccn1	0	0	0	0	0	0	0	0	0	0	0	0	0	0	0	0
CCc1ccccc1NC(=O)c1snnc1C	0	0	0	0	0	0	0	0	0	0	0	0	0	0	0	0
CC(C)Nc1ncccn1	0	0	0	0	0	0	0	0	0	0	0	0	0	0	0	0
CC1(S(=O)(=O)N2CCC=C(F)C2)CC1	0	0	0	0	0	0	0	0	0	0	0	0	0	0	0	0
Fc1ccc(CNCC2CCCO2)cc1 (stereo not drawn)	0	0	0	0	0	0	0	0	0	0	0	0	0	0	0	0
CC(C)(C)CC(=O)Nc1ccc(F)cc1F	0	0	0	0	0	0	0	0	0	0	0	0	0	0	0	0
Cl.NC1CCCN(C(=O)CCC(F)(F)F)C1 (stereo not drawn)	0	0	0	0	0	0	0	0	0	0	0	0	0	0	0	0
CS(=O)(=O)NC1CCCC1	0	0	0	0	0	0	0	0	0	0	0	0	0	0	0	0
CCC(=O)Nc1nc(C)cs1	0	0	0	0	0	0	0	0	0	0	0	0	0	0	0	0
CC(NC(=O)C1CCCC1)C(=O)O (stereo not drawn)	0	0	0	0	0	0	0	0	0	0	0	0	0	0	0	0
CC1CCC(NC2CCC(O)CC2)CC1 (stereo not drawn)	0	0	0	0	0	0	0	0	0	0	0	0	0	0	0	0
CC(=O)Nc1cccc(C(=O)O)c1C	0	0	0	0	0	0	0	0	0	0	0	0	0	0	0	0
CCC(=O)Nc1cccc(N)c1C	0	0	0	0	0	0	0	0	0	0	0	0	0	0	0	0

Structure (SMILES)	NMR binding call [1]	NMR binding call [2]	NMR binding call [3]	NMR binding call [4]	NMR binding call [5]	NMR binding call [6]	NMR binding call [7]	NMR binding call [8]	NMR binding call [9]	NMR binding call [10]	NMR binding call [11]	NMR binding call [12]	NMR binding call [13]	NMR binding call [14]	NMR binding call [15]	NMR binding call [16]
Cc1sc2ncnc(N(C)C)c2c1C	1	0	0	0	1	0	1	0	0	0	0	1	0	0	0	0
CC(c1ccccc1F)N1CCNCC1.Cl.Cl (stereo not drawn)	0	0	0	0	0	0	0	0	0	0	0	0	0	0	0	0
O=C(COc1ccccc1)Nc1cccc(F)c1	0	0	0	0	0	0	0	0	0	0	0	0	0	0	0	0
O=C(NCC1CC1)Nc1ccc2c(c1)CCO2	0	0	0	0	0	0	0	0	0	0	0	0	0	0	0	0
Cc1nc(CN2CCC(CN)CC2)cs1	0	0	0	0	0	0	0	0	0	0	0	0	0	0	0	0
CC(Oc1ccc(C#N)cc1)C(N)=O (stereo not drawn)	0	0	0	0	0	0	0	0	0	0	0	0	0	0	0	0
CS(=O)(=O)CC(O)c1ccccc1 (stereo not drawn)	0	0	0	0	0	0	0	0	0	0	0	0	0	0	0	0
CNC1(C(N)=O)CCCC1	0	0	0	0	0	0	0	0	0	0	0	0	0	0	0	0
O=C(Nc1nccs1)C1CC1c1ccccc1 (stereo not drawn)	0	0	0	0	0	0	0	0	0	0	0	0	0	0	0	0
CCNC(=O)N1CCN(C(C)=O)CC1	0	0	0	0	0	0	0	0	0	0	0	0	0	0	0	0
Cc1nccn1Cc1cccc(C#N)c1	0	0	0	0	0	0	0	0	0	0	0	0	0	0	0	0
Fc1ccc(CNCc2ccccc2)cc1	0	0	0	0	0	0	0	0	0	0	0	0	0	0	0	0
CC(=O)NC(C)(C(=O)O)C1CC1 (stereo not drawn)	0	0	0	0	0	0	0	0	0	0	0	0	0	0	0	0
CCNc1ccc(C#N)cn1	0	0	0	0	0	0	0	0	0	0	0	0	0	0	0	0
CN(C)C(=O)N1CCOCC12CCOC2 (stereo not drawn)	0	0	0	0	0	0	0	0	0	0	0	0	0	0	0	0
CNC(C)c1ccc(F)cc1.Cl (stereo not drawn)	0	0	0	0	0	0	0	0	0	0	0	0	0	0	0	0

Some of these compounds in order of molecular weight, low to high:
Structure (SMILES)	NMR binding call [1]	NMR binding call [2]	NMR binding call [3]	NMR binding call [4]	NMR binding call [5]	NMR binding call [6]	NMR binding call [7]	NMR binding call [8]	NMR binding call [9]	NMR binding call [10]	NMR binding call [11]	NMR binding call [12]	NMR binding call [13]	NMR binding call [14]	NMR binding call [15]	NMR binding call [16]
CCC(=O)Nc1cccc(N)c1C	0	0	0	0	0	0	0	0	0	0	0	0	0	0	0	0
Cc1nccn1Cc1cccc(C#N)c1	0	0	0	0	0	0	0	0	0	0	0	0	0	0	0	0
CS(=O)(=O)CC(O)c1ccccc1 (stereo not drawn)	0	0	0	0	0	0	0	0	0	0	0	0	0	0	0	0
Fc1ccc(CNCc2ccccc2)cc1	0	0	0	0	0	0	0	0	0	0	0	0	0	0	0	0
CC1(S(=O)(=O)N2CCC=C(F)C2)CC1	0	0	0	0	0	0	0	0	0	0	0	0	0	0	0	0
CCc1ccccc1NC(=O)c1snnc1C	0	0	0	0	0	0	0	0	0	0	0	0	0	0	0	0
